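A cell-based FRET test of anthrax lethal toxin entry, tracked through the 460 nm emission signal; the cell line is not named here. Each compound was tested as a concentration series from about 0.0005 to 40 µM. The number is the fitted AC50 of the 460 nm signal alone; lower values mean a more potent effect. A falling signal goes with compounds filed as inhibitors or cytotoxic, a rising one with activators or fluorescent compounds (inferred from the filed classes).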

Values are in µM. Common to all entries: measured here: 460 nm channel. Part of the compounds only, not a random draw; the main read-out is not listed here. A potency from a partial, single-point or poor curve is only a rough figure. The first word of each remark tells which way the curve ran; it can be opposite to the aim of the assay.

SMILES	AC50 (µM)	remark
COc1cc(-c2ccc(N=C=O)c(OC)c2)ccc1N=C=O	12.59	falling, partial curve
c1cncc(Nc2nc(-c3cccnc3)cs2)c1	10	rising, partial curve
COc1ccc(N=c2oc3cc(O)ccc3cc2C(=O)NCC2CCCO2)cc1 (stereo unspecified)	10	rising, partial curve
CC1(C)Cc2nc(-c3ccccc3)n3cnnc3c2CO1	0.7943	rising, full curve, poor fit
O=C(CCn1c(=O)oc2ccccc21)N1CCN(C(c2ccccc2)c2ccccc2)CC1	12.59	rising, partial curve
O=c1c(-c2ccc(F)c(F)c2)nc2cncnc2n1-c1ccccc1	10	rising, partial curve
CCOC(=O)C1CCCN(c2c(Nc3ccc(C)c(C)c3)c(=O)c2=O)C1 (stereo unspecified)	10	rising, partial curve
Cc1noc(C)c1C(=O)N1CCC2(CCCN(c3ccncc3)C2)CC1	5.012	falling, single point
CC(C)(C)c1cc(C=C(C#N)C#N)cc(C(C)(C)C)c1O	1	falling, full curve
CCC(C)NC(=O)CCNS(=O)(=O)c1ccc(Br)cc1 (stereo unspecified)	2.512	rising, single point
O=C(Nc1cc(C(F)(F)F)ccc1N1CCOCC1)C1Cc2ccccc2CN1C(=O)c1ccco1 (stereo unspecified)	15.85	falling, single point
CC1CCCCN1C(=O)c1ccc(S(=O)(=O)N2CCCCC2C)cc1 (stereo unspecified)	3.162	rising, partial curve
Cc1ccc(F)cc1NC(=O)C1CCN(c2cnccn2)CC1	5.012	rising, single point
Cc1noc(C)c1-c1cncnc1NCCN1CCOCC1	5.012	falling, single point
COC(=O)[C@@]1(Cc2ccc(F)cc2)[C@H]2c3cc(C(=O)N4CCCC4)n(CCCNc4ncc(C(F)(F)F)cc4Cl)c3C[C@H]2CN1C(=O)c1ccccc1	3.162	rising, partial curve
C/C(N)=C(/C#N)C(=O)CSc1nnnn1-c1ccc(C)cc1C	0.7943	falling, full curve, poor fit
CCCOc1cc(C)c(S(=O)(=O)NCCOC)cc1C	1	falling, full curve, poor fit
O=C(c1cc(-c2ccccc2O)on1)N1CCc2ccccc2C1	1.995	falling, full curve
Cc1cc2c(cc1C)NC(c1c(C)n(C)n(-c3ccccc3)c1=O)C1=C(CC(C)(C)CC1=O)N2 (stereo unspecified)	15.85	rising, single point
Fc1ccc(CN(C2=NCCN2)c2c(Cl)cccc2Cl)cc1	12.59	falling, full curve, poor fit
CCN(CC)CCOC(=O)C(c1ccccc1)c1ccccc1	0.03981	falling, full curve, poor fit
COc1ccc(C(=O)Nc2nc(-c3cccs3)cs2)cc1	15.85	falling, single point
COC(=O)c1nc2cc(C)ccn2c1F	31.62	rising, single point
COc1cc(COc2cc(N)c(Cl)cc2C(=O)CCC2CCN(CCNS(C)(=O)=O)CC2)cc(OC)c1	31.62	falling, single point
CC(C)CC(C)Nc1ccc(Nc2ccccc2)cc1 (stereo unspecified)	12.59	falling, partial curve
CCC(Sc1nc(=O)cc(N)n1CCc1ccccc1)C(=O)Nc1ccccc1C#N (stereo unspecified)	12.59	rising, single point
COC(=O)c1cc2sccc2n1CC(=O)Nc1cccc(SC)c1	1.995	falling, full curve, poor fit
CCOC(=O)c1c(NC(=O)CSc2nnc(C)s2)sc2c1CCN(C)C2	5.012	rising, single point
Cc1ccnc(N2C(=O)c3ccccc3C2Nc2ccccc2Cl)c1 (stereo unspecified)	31.62	falling, single point
CCOC(=O)C1CCCN(Cc2ccccc2OCC)C1 (stereo unspecified)	5.012	falling, partial curve
CCN1CCN(CCNC(=O)C2CCN(Cc3nc(-c4ccc(Cl)cc4)oc3C)CC2)CC1	10	falling, partial curve
c1ccc(CNc2ncnc3ccc(-c4cccnc4)cc23)cc1	1	falling, full curve
COc1ccc(N2C(=O)c3cccc4cccc(c34)C2=O)nn1	7.943	falling, partial curve
CN(C)c1ccc(C(=N)c2ccc(N(C)C)cc2)cc1	15.85	falling, partial curve
COCCn1c(=N)c(C(=O)NCc2ccco2)cc2c(=O)n3ccccc3nc21	0.01995	rising, full curve
C=C(C)COc1ccc(-c2[nH]ncc2Oc2cccc(OC)c2)c(O)c1	15.85	falling, partial curve
Cc1cnc(CNc2ncncc2-c2cccnc2)cn1	5.012	rising, single point
CC(C)c1cc(=O)oc2c3c4c(cc12)CCCN4CCC3	12.59	rising, partial curve
COc1cccc(-c2nccc(N(C)Cc3ccco3)n2)c1	25.12	falling, single point
CCOC(=O)N1CCN(c2c(F)cc3[nH]c(=S)[nH]c3c2Br)CC1	31.62	falling, single point
CCCOC(=O)c1ccc(-c2c(C)noc2-c2ccc(OC)cc2O)o1	0.07943	falling, full curve, poor fit
O=c1c2ccccc2sn1-c1ccc(S(=O)(=O)N2CCCCC2)cc1	0.1	falling, full curve
Cc1ccc(NC(=O)CC2Nc3ccccc3NC2=O)cc1Cl (stereo unspecified)	10	rising, partial curve
CC(NC(=O)NCC1CCCO1)(C(F)(F)F)C(F)(F)F (stereo unspecified)	0.003981	falling, full curve, poor fit
CCOc1ccc(C(=O)Nc2cccc(-c3nc4cccnc4o3)c2)cc1Cl	3.981	falling, full curve
O=C(Cn1nnc(-c2ccc(Cl)cc2)n1)NC1CC2CCC1C2 (stereo unspecified)	12.59	falling, single point
O=C(CCSc1nc(-c2ccco2)cc(C(F)(F)F)n1)Nc1ccc2c(c1)OCO2	31.62	falling, single point
CCOC(=O)N1CCC(NC(=O)c2cc(S(=O)(=O)N3CCCC3)cn2C)CC1	10	rising, single point
CCCOC(=O)CN1C(=O)c2ccc(C(=O)OCCC)cc2C1=O	12.59	falling, single point
O=C(COc1ccc(S(=O)(=O)N2CCCC2)cc1Cl)NCc1ccco1	10	rising, single point
Nc1nnc(SCCOc2ccc(Br)cc2)s1	1.995	falling, full curve, poor fit
COc1ccc(-c2nc(C#N)c(NCCCN(C)C)o2)cc1OC	0.003162	rising, full curve, poor fit
CCOc1ccccc1Oc1c(C)oc2cc(OC(=O)N3CCOCC3)ccc2c1=O	0.3162	falling, partial curve
COc1ccccc1OCCSc1nnnn1-c1ccc(C)cc1	31.62	falling, single point

Some entries from above, unchanged:

- COc1ccc(N2C(=O)c3cccc4cccc(c34)C2=O)nn1 : AC50 7.943 µM (falling, partial curve)
- CCOC(=O)N1CCN(c2c(F)cc3[nH]c(=S)[nH]c3c2Br)CC1 : AC50 31.62 µM (falling, single point)
- CCCOc1cc(C)c(S(=O)(=O)NCCOC)cc1C : AC50 1 µM (falling, full curve, poor fit)
- C/C(N)=C(/C#N)C(=O)CSc1nnnn1-c1ccc(C)cc1C : AC50 0.7943 µM (falling, full curve, poor fit)
- Cc1cnc(CNc2ncncc2-c2cccnc2)cn1 : AC50 5.012 µM (rising, single point)
- CN(C)c1ccc(C(=N)c2ccc(N(C)C)cc2)cc1 : AC50 15.85 µM (falling, partial curve)

Source: PubChem BioAssay AID912 (NCATS, 2007).